Source: the supplement of paper PMC10849652
The list shows a part of the results.

Amino acid sequences for entries named in this document (tags omitted). A change or cut given only in a name is not applied to a line headed by its entry.
UniProt Q5JQC4: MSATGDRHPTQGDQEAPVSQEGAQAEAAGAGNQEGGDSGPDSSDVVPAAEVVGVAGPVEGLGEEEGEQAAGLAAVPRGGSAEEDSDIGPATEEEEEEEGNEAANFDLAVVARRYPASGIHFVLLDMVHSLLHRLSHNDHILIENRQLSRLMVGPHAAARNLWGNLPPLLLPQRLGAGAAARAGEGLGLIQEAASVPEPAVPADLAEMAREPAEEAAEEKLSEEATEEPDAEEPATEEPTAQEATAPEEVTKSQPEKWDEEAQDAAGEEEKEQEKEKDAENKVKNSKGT
UniProt Q92564: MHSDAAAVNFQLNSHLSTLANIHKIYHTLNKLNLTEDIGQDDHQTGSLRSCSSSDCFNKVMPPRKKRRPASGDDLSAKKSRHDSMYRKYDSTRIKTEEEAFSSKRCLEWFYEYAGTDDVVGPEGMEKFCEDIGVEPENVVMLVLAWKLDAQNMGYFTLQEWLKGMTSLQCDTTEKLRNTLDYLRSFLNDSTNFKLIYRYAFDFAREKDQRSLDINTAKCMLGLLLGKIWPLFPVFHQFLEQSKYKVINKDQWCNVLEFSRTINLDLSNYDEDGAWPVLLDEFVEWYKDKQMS
UniProt P09668: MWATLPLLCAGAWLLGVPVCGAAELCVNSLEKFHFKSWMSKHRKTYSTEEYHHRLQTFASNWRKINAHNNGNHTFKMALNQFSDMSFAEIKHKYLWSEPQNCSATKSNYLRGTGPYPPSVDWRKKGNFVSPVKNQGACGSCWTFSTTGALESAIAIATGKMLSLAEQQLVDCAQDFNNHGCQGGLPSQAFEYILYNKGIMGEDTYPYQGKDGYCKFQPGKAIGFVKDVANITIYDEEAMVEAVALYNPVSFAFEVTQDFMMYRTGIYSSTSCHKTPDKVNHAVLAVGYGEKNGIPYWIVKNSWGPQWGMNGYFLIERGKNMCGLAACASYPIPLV
UniProt Q9NXF7, whole entry, looked up: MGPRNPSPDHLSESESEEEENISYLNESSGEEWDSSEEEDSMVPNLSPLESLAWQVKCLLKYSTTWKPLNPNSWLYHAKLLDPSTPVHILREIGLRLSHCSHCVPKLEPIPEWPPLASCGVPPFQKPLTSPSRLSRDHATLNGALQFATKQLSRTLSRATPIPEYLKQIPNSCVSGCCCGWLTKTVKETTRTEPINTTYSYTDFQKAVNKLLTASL
UniProt Q16643: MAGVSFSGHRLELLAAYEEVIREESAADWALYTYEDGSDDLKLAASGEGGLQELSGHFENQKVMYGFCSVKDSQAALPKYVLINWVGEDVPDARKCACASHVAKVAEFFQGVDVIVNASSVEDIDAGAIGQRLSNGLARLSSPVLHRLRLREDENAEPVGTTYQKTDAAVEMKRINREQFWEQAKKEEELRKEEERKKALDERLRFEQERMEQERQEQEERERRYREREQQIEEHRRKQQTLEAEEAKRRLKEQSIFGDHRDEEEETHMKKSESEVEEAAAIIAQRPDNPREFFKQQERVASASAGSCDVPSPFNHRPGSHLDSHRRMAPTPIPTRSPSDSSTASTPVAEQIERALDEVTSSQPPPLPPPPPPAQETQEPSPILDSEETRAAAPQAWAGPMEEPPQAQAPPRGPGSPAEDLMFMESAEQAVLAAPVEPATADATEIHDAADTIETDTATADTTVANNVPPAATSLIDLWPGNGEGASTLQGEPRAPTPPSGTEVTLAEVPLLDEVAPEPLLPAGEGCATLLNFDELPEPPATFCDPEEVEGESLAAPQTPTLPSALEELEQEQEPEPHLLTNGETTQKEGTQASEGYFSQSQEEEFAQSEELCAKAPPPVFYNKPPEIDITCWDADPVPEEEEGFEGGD
UniProt Q13619, whole entry, looked up: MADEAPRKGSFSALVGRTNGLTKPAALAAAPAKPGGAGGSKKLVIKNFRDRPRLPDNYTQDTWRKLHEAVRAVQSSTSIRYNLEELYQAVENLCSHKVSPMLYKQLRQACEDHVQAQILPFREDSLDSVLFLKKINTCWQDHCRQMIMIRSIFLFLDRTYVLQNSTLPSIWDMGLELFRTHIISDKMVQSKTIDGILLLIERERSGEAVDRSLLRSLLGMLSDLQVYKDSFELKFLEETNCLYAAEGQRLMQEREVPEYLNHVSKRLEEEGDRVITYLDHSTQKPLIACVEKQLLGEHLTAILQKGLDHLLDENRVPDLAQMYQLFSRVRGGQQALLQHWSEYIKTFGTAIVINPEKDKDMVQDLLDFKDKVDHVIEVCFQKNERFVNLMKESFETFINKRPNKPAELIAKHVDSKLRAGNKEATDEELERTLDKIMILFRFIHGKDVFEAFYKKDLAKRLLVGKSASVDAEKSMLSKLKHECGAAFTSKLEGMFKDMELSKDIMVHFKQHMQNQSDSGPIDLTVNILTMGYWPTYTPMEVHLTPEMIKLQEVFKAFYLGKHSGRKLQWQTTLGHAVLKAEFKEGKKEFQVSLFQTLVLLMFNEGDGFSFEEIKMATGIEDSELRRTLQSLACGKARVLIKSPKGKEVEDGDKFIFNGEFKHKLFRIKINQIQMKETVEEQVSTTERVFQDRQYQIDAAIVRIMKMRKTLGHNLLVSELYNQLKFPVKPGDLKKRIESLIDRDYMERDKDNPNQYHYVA
UniProt Q9NWV4: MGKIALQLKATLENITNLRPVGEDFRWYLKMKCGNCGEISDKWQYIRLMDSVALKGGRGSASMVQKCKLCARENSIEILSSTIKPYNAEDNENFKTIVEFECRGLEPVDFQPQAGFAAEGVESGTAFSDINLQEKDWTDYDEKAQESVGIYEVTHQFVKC
UniProt Q9Y6A2: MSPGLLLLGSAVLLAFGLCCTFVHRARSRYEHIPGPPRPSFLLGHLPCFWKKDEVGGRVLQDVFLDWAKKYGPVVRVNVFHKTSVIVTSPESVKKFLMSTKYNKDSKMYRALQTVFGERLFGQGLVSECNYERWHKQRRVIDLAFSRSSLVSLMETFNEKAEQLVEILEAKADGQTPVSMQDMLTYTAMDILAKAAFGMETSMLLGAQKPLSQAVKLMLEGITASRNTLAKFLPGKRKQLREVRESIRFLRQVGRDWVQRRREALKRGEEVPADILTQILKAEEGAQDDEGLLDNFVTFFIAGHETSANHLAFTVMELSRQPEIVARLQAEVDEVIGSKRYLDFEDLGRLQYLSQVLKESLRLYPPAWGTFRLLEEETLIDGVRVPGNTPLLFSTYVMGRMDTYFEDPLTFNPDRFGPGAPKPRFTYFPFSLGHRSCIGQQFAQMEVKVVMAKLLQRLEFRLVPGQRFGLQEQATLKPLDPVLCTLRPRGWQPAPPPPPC
UniProt Q96GG9: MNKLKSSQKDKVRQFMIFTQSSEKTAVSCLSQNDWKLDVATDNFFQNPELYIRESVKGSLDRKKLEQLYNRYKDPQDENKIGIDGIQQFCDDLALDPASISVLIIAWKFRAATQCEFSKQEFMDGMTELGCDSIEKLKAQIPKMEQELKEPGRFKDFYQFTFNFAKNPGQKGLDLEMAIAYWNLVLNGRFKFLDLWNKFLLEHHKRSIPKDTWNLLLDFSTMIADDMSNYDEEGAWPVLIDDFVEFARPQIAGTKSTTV
UniProt Q9UHQ9: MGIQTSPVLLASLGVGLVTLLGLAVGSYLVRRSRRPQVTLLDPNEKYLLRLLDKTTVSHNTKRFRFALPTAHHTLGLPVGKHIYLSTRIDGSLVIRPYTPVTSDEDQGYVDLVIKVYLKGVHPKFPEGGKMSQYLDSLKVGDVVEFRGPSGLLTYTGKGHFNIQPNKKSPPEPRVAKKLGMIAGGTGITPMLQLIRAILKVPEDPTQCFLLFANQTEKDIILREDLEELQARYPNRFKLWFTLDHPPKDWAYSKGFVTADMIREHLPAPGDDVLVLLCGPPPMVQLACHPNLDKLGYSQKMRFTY
UniProt O95476: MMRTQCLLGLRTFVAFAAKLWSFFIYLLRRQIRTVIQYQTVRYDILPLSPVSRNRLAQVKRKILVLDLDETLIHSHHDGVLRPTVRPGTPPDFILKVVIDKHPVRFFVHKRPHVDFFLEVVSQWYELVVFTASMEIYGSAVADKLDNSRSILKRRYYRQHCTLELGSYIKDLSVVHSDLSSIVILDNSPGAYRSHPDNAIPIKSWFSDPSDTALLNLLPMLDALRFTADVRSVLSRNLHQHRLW
UniProt P35222, whole entry, looked up: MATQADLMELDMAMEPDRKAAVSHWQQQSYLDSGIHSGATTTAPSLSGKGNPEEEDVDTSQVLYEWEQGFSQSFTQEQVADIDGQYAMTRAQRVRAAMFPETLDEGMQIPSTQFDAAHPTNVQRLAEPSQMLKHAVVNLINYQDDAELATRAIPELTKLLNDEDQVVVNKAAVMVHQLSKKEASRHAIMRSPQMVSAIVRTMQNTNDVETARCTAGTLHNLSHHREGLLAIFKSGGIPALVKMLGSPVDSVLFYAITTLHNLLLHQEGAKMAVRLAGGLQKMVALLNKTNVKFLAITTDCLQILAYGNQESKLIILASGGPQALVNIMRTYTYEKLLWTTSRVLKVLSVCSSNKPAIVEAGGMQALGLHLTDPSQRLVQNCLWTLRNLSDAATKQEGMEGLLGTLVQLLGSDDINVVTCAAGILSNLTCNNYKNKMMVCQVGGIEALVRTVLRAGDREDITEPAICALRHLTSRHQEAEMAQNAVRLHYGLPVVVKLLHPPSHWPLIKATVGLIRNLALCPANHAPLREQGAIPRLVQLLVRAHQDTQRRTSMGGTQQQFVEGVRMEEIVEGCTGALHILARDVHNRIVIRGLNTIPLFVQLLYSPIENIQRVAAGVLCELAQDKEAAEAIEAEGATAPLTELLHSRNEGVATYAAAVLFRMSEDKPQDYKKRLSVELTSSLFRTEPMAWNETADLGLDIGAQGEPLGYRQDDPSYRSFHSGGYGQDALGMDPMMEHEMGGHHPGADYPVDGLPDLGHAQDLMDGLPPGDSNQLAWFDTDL
UniProt Q9P0U4, whole entry, looked up: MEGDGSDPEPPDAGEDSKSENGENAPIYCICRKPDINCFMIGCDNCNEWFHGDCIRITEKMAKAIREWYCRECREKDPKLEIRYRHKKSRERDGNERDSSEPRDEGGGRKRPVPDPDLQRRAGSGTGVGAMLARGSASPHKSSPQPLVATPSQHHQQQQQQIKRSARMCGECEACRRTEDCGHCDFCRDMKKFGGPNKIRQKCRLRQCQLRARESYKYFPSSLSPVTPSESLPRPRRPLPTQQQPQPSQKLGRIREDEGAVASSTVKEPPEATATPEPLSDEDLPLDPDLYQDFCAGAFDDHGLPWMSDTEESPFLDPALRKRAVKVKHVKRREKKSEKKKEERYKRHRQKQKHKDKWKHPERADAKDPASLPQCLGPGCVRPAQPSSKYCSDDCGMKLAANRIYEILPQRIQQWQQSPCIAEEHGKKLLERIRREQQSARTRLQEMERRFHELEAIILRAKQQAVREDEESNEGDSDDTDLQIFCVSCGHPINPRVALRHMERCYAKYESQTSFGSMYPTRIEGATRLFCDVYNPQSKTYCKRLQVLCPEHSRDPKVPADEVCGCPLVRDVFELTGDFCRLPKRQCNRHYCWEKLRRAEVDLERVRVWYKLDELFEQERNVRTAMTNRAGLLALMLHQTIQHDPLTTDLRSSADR
UniProt Q9H467: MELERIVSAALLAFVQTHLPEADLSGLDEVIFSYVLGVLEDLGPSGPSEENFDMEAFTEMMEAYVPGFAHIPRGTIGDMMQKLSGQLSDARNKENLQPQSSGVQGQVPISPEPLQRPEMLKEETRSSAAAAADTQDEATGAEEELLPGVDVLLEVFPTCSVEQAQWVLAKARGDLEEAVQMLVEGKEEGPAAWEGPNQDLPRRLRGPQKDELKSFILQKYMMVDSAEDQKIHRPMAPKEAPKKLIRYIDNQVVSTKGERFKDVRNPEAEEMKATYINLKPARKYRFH
UniProt O43310: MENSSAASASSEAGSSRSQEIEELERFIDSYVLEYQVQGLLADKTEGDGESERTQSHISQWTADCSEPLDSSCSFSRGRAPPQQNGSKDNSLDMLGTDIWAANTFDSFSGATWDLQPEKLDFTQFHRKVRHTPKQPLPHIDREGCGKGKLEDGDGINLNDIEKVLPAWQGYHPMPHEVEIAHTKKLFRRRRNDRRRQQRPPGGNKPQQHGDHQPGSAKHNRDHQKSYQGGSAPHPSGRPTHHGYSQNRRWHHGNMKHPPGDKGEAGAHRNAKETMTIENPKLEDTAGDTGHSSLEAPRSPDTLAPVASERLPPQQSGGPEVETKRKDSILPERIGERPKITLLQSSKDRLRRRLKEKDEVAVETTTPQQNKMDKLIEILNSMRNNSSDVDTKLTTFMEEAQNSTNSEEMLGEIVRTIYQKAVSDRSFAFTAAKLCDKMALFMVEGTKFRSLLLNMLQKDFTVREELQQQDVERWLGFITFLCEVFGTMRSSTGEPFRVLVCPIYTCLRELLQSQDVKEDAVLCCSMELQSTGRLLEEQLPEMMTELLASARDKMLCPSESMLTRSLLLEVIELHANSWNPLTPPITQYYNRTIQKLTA

Tests used:
Experiment in all cases: log2 fold change, soluble protein after heating vs DMSO (PISA); higher = thermal stabilisation; K562 cells, 10 uM, 30 min; active = over 0.2 and 3.5 SD of the protein, either way, in both replicates (recomputed)
[1] = compound: CN1CCN(CCOc2cc(OC3CCOCC3)c3c(Nc4c(Cl)ccc5c4OCO5)ncnc3c2)CC1 [saracatinib]
How it was run: (§1)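 Values are thermal stability changes relative to control samples and are taken from duplicates. They are stated as log2 fold changes. Before quantification by TMTpro 16plex LC-MS/MS with equalised channel sums, K562 cells at 2×10^6 cells/mL were treated with 10 μM compound for 30 min, heated in aliquots for 3 min across 48°C-58°C, pooled, extracted in PBS with 0.5% NP-40 at 4°C, and centrifuged at 21,000xg for 90 min to give the soluble supernatant.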

[2] = compound: CN1CCN(c2nc(C3=C(c4c[nH]c5ccccc45)C(=O)NC3=O)c3ccccc3n2)CC1 [sotrastaurin]
How it was run: as §1

[3] = compound: CN1CC[C@H](c2c(O)cc(O)c3c(=O)cc(-c4ccccc4Cl)oc23)[C@H](O)C1 [alvocidib]
How it was run: as §1

[4] = compound: CN1CCc2c(c3ccccc3n2Cc2ccc(C(=O)NO)cc2)C1 [Tubastatin A]
How it was run: as §1

[5] = compound: CNC(=O)C1=CC=CC=C1NC2=NC(=NC=C2Cl)NC3=C(C=C(C=C3)N4CCOCC4)OC
How it was run: as §1

[6] = compound: CNC(=O)c1ccc(Nc2ncc(C(F)(F)F)c(NCc3nccnc3N(C)S(C)(=O)=O)n2)cc1 [defactinib]
How it was run: as §1

[7] = compound: CNCc1ccc(-c2[nH]c3cc(F)cc4c3c2CCNC4=O)cc1 [rucaparib]
How it was run: as §1

[8] = compound: CNc1nc(-c2ccc3c(N)n[nH]c3c2)cc(N2C[C@@H](C(=O)NC3CCCCC3)CC[C@H]2C)n1
How it was run: as §1

[9] = compound: COC(=O)N[C@@H](C)CNc1nccc(-c2cn(C(C)C)nc2-c2cc(Cl)cc(NS(C)(=O)=O)c2F)n1 [encorafenib]
How it was run: as §1

[10] = compound: COC(=O)[C@H](CCSC)NC(=O)C1=C(C=C(C=C1)NC[C@H](CS)N)C2=CC=CC=C2
How it was run: as §1

[11] = compound: COC1=CC=C(C=C1)CN2C=CC3=C2C=C(C=C3)C(=O)NO
How it was run: as §1

[12] = compound: CON(C)C(=O)N1N=C(c2cc(F)ccc2F)S[C@@]1(CCCN)c1ccccc1 [filanesib]
How it was run: as §1

[13] = compound: CO[C@H]1C[C@@H]2CC[C@@H](C)[C@@](O)(O2)C(=O)C(=O)N2CCCC[C@H]2C(=O)O[C@H]([C@H](C)C[C@@H]2CC[C@H](n3cnnn3)[C@H](OC)C2)CC(=O)[C@H](C)/C=C(\C)[C@@H](O)[C@@H](OC)C(=O)[C@H](C)C[C@H](C)/C=C/C=C/C=C/1C [zotarolimus]
How it was run: as §1

[14] = compound: COc1cc(C(=O)O)ccc1NC(=O)[C@@H]1N[C@@H](CC(C)(C)C)[C@](C#N)(c2ccc(Cl)cc2F)[C@H]1c1cccc(Cl)c1F [idasanutlin]
How it was run: as §1

[15] = compound: COc1cc(Nc2ncc3c(n2)-c2ccc(Cl)cc2C(c2c(F)cccc2OC)=NC3)ccc1C(=O)O [alisertib]
How it was run: as §1

[16] = compound: COc1cc2nc(-c3cc(F)ccc3O)nc(N[C@@H]3CNC[C@H]3C(C)(C)O)c2cc1OC
How it was run: as §1

[17] = compound: COc1cc2ncnc(Nc3ccc(F)c(Cl)c3)c2cc1OCCCN1CCOCC1 [gefitinib]
How it was run: as §1

[18] = compound: COc1cccc2cc(-c3nc([C@H]4CC[C@H](C(=O)O)CC4)n4ncnc(N)c34)[nH]c12
How it was run: as §1

[19] = compound: CS(=O)(=O)CCNCc1ccc(-c2ccc3ncnc(Nc4ccc(OCc5cccc(F)c5)c(Cl)c4)c3c2)o1 [lapatinib]
How it was run: as §1

[20] = compound: CS(=O)(=O)N1CCN(Cc2cc3nc(-c4cccc5[nH]ncc45)nc(N4CCOCC4)c3s2)CC1 [pictilisib]
How it was run: as §1

Target	log2 fold change [1]	log2 fold change [2]	log2 fold change [3]	log2 fold change [4]	log2 fold change [5]	log2 fold change [6]	log2 fold change [7]	log2 fold change [8]	log2 fold change [9]	log2 fold change [10]	log2 fold change [11]	log2 fold change [12]	log2 fold change [13]	log2 fold change [14]	log2 fold change [15]	log2 fold change [16]	log2 fold change [17]	log2 fold change [18]	log2 fold change [19]	log2 fold change [20]
CT47A1 (UniProt Q5JQC4)	inactive: -0.001	inactive: -0.017	inactive: 0.039	inactive: -0.037	inactive: -0.037	inactive: 0.007	inactive: 0.036	inactive: -0.041	inactive: 0.001	inactive: 0.023	inactive: 0.012	inactive: -0.022	inactive: 0.122	inactive: -0.005	inactive: -0.148	inactive: -0.042	inactive: 0.033	inactive: 0.012	inactive: -0.017	inactive: -0.08
CTSL (UniProt P07711)	inactive: 0.113	inactive: 0.05		inactive: 0.038	inactive: 0.024	inactive: 0.032	inactive: 0.049	inactive: 0.018	inactive: -0.008	inactive: 0.02	inactive: -0.143	active: 0.316	inactive: -0.041	inactive: 0.125	inactive: -0.099	inactive: 0.044	inactive: 0.025	inactive: 0.086	inactive: 0.087	inactive: 0.057
DCUN1D4 isoform 3 (UniProt Q92564)	inactive: -0.01	inactive: -0.07	inactive: -0.204	inactive: 0.055		inactive: -0.259	inactive: 0.01	inactive: 0.029	inactive: -0.183	inactive: 0.168	inactive: 0.017	inactive: -0.016	inactive: -0.096	inactive: -0.03	inactive: 0.023			inactive: -0.107		
CTSH (UniProt P09668)	inactive: 0.101	inactive: 0.044		inactive: 0.017	inactive: -0.002	inactive: 0.018	inactive: -0.121	inactive: -0.03	inactive: 0.018	inactive: 0.02	inactive: 0.066	inactive: -0.072	inactive: -0.046	inactive: 0.029	inactive: -0.06	inactive: 0.021	inactive: 0.025	inactive: 0.084	inactive: 0.018	inactive: 0.019
DCAF16 (UniProt Q9NXF7)	inactive: -0.052	inactive: -0.036		inactive: -0.006	inactive: 0.084	inactive: -0.054	inactive: 0.033	inactive: -0.05	inactive: 0.004	inactive: -0.041	inactive: 0.065	inactive: 0.077	inactive: 0.035	inactive: 0.037	inactive: -0.07	inactive: 0.021	inactive: 0.022	inactive: 0	inactive: -0.168	inactive: 0.132
DBN1 isoform 3 (UniProt Q16643)	inactive: 0.121	inactive: 0.001		inactive: -0.094	inactive: -0.042	inactive: -0.06	inactive: 0.041	inactive: -0.011	inactive: 0.097	inactive: -0.033	inactive: 0.012	inactive: 0.182	inactive: 0.074	inactive: 0.061	inactive: -0.023	inactive: -0.024	inactive: 0.05	inactive: 0.084	inactive: -0.041	inactive: -0.111
CTNND1 (UniProt O60716)	inactive: -0.089	inactive: -0.077	inactive: -0.043	inactive: -0.025	inactive: 0.144	inactive: 0.222	inactive: 0.353	inactive: 0.04	inactive: 0.153	inactive: 0.064	inactive: -0.069	inactive: 0.273	inactive: 0.101	inactive: 0.16	inactive: -0.117	inactive: -0.07		inactive: -0.27	inactive: -0.018	inactive: 0.052
CUL4A (UniProt Q13619)	inactive: -0.011	inactive: -0.008	inactive: -0.063	inactive: -0.013	inactive: 0.004	inactive: -0.08	inactive: -0.021	inactive: -0.01	inactive: 0.044	inactive: 0.007	inactive: 0.088	inactive: -0.028	inactive: 0.014	inactive: -0.054	inactive: -0.04	inactive: 0.029	inactive: -0.016	inactive: 0.032	inactive: -0.023	inactive: 0.029
CZIB (UniProt Q9NWV4)	inactive: 0.03	inactive: 0.036	inactive: -0.056	inactive: -0.05	inactive: 0.025	inactive: -0.038	inactive: -0.025	inactive: -0.017	inactive: -0.007	inactive: 0.045	inactive: -0.048	inactive: -0.001	inactive: 0	inactive: -0.02	inactive: -0.086	inactive: -0.018	inactive: -0.005	inactive: 0	inactive: -0.003	inactive: 0.072
CYP46A1 (UniProt Q9Y6A2)	inactive: -0.162	inactive: 0.129	inactive: 0.193	inactive: -0.093		inactive: -0.033		inactive: -0.053		inactive: -0.04	inactive: -0.482	inactive: 0.124	inactive: -0.058	inactive: -0.409	inactive: -0.221	inactive: 0.386		inactive: 0.052	inactive: -0.351	inactive: 0.231
DCUN1D1 (UniProt Q96GG9)	inactive: 0.032	inactive: -0.001		inactive: -0.009	inactive: 0.007	inactive: -0.033	inactive: -0.026	inactive: -0.02	inactive: 0.014	inactive: -0.011	inactive: 0.065	inactive: -0.003	inactive: 0.015	inactive: -0.062	inactive: 0.008	inactive: -0.021	inactive: 0.004	inactive: 0.031	inactive: 0.019	inactive: 0.015
CYB5R1 (UniProt Q9UHQ9)	inactive: 0.032	inactive: 0.062	inactive: 0.032	inactive: -0.009	inactive: -0.051	inactive: 0	inactive: 0.008	inactive: -0.05	inactive: -0.038	inactive: 0	inactive: -0.018	inactive: -0.033	inactive: -0.029	inactive: -0.053	inactive: -0.016	inactive: -0.003	inactive: 0.003	inactive: 0.065	inactive: -0.023	inactive: 0.12
CTDNEP1 (UniProt O95476)	inactive: 0.08	inactive: -0.169	inactive: 0.048	inactive: 0.214	inactive: 0.092	inactive: 0.077		inactive: 0.125		inactive: -0.083		inactive: 0.038	inactive: 0.284	inactive: 0.045						inactive: 0.016
CTNNB1 (UniProt P35222)	inactive: 0.032	active: 1.08		inactive: 0.148	inactive: -0.065	inactive: 0.074	inactive: -0.145	inactive: -0.025	inactive: 0.079	inactive: -0.015	inactive: -0.082	inactive: 0.174	inactive: 0.029	inactive: -0.056	inactive: -0.084	inactive: 0.072	inactive: -0.001	inactive: 0.054	inactive: 0	inactive: -0.2
CXXC1 isoform 2 (UniProt Q9P0U4)	inactive: -0.032	inactive: 0.078	inactive: -0.077	inactive: 0.098		inactive: -0.046		inactive: -0.015		inactive: 0.145	inactive: -0.03	inactive: -0.005	inactive: -0.064	inactive: -0.104		inactive: 0.098			inactive: -0.075	inactive: 0.121
CUEDC2 (UniProt Q9H467)	inactive: -0.003	inactive: -0.045		inactive: 0.197	inactive: -0.036	inactive: -0.067	inactive: -0.033	active: -0.338	inactive: 0.071	inactive: 0.016	inactive: 0.233	inactive: 0.018	inactive: 0	inactive: 0.005	inactive: -0.035	inactive: -0.018	inactive: 0.168	inactive: 0.023	inactive: -0.035	inactive: 0.014
CTIF isoform 2 (UniProt O43310)	inactive: 0.031	inactive: 0.105	inactive: 0.066	inactive: -0.066	inactive: 0.013	inactive: -0.002	inactive: -0.06	inactive: -0.034	inactive: 0.1	inactive: 0.083	inactive: -0.105	inactive: -0.096	inactive: -0.02	inactive: 0.024	inactive: 0.1	inactive: 0.059	inactive: -0.023	inactive: 0.122	inactive: 0.014	inactive: -0.041

Individual results from the results shown.
For log2 fold change [13], CUL4A (UniProt Q13619) has the entry inactive: 0.014
For log2 fold change [14], CTSH (UniProt P09668) has the entry inactive: 0.029
